Test results: publication PMC8596125 (Advanced Science, 2021)

Test: Photophysical characterizations (SOQ, molar extinction coefficient, FQ)
Type: physicochemical
Conditions: in DMSO; for Molar extinction coefficient ε: absorbance at 668 nm, Beer-Lambert law

Compound | SOQ (singlet oxygen quantum yield) (DMA sensor, 660 nm laser 80 mW cm-2, relative to Ppa reference 0.50) | Molar extinction coefficient ε
PEG‐dendritic peptide‐pyropheophorbide a [PDPP] | 0.51 | 3.07 10^4 M-1·cm−1
C=Cc1c(C)c2cc3nc(c4c5[nH]c(cc6nc(cc1[nH]2)C(C)=C6CC)c(C)c5C(=O)C4)[C@@H](CCC(=O)O)[C@@H]3C [Ppa, pyropheophorbide a] | – | 3.49 10^4 M-1·cm−1
